Measured values: patent US9561272B2, “Compositions and methods for modulating immune responses” (The University of Queensland, priority 2006, dated 2017)
For part of these data: At least one structure is not confirmed: it was looked up by name or label, or the drawing left a doubt. Some entries share one result that the patent states for a list of compounds.

What was measured:
[1] = Entrapment efficiency of NF-κB inhibitor and antigen in liposomes (% EE); type: physicochemical; details: EPC liposomes, after removal of non-entrapped drug
Protocol: Entrapment efficiency of protein following this process was typically at least 20%, approximately 60% for Bay and greater than 80% for both Quecertin and Curcumin. Empty, NF-κB inhibitor or protein only liposomes were prepared as above, by omitting the relevant bioactive/s. Following removal of non-entrapped NF-κB inhibitor and antigen, the amount of NF-κB inhibitor and antigen entrapped in liposome could be quantified by assay method. The entrapment efficiency was expressed as: [formula] […] The resulting solution was then kept at −20° C. […] The concentration of Bay 11-7082 in the resulting supernatant was then assayed and calculated based on the established calibration (with consideration to the dilutions performed) (data not shown). […] The concentration of either quercetin or curcumin in the resulting solution was then assayed and calculated based on the established calibration curves (with consideration to the dilutions performed). […] The quantity of model antigen entrapped in liposomes was determined by a standard bicinchoninic acid (BCA) protein assay with slight modification. […] After incubation, the absorbance of the solution was measured using a Cary 50 UV-VIS spectrophotometer (Varian, Calif., USA) at a wavelength of 562 nm. […]

[2] = cited from earlier work
NF-κB = details: Table 3, miscellaneous inhibitors of NF-κB; step of NF-κB function inhibited, per the cited reference; cited from earlier work

| SMILES | entrapment efficiency of NF-κB inhibitor in liposomes [1] | log P [2] | Effect or point of inhibition (NF-κB) |
| --- | --- | --- | --- |
| O=c1c(O)c(-c2ccc(O)c(O)c2)oc2cc(O)cc(O)c12 [Quercetin] | greater than 80% | > 3 | – |
| O=C(Nc1cccc2c(=O)cc(-c3nnn[nH]3)oc12)c1ccc(OCCCCc2ccccc2)cc1 [Pranlukast] | – | – | Transactivation |
| COc1cc(C=CC(=O)CC(=O)C=Cc2ccc(O)c(OC)c2)ccc1O [Curcumin, 1,7-bis(4-hydroxy-3-methoxyphenyl)-1,6-heptadiene-3,5-dione] | greater than 80% | > 3 | – |
| Cc1c(C)c2c(c(C)c1O)CCC(C)(COc1ccc(CC3SC(=O)NC3=O)cc1)O2 (stereo not drawn) [Troglitazone] | – | – | Transactivation |
